# About 45 (3%) of roughly 1,400 compounds were called active.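 Rule for the calls: active = half-maximal dose of signal decrease from fit no higher than ten times the top valid tested dose; inconclusive = fit invalid, or curve flat with 30 to 70% inhibition; inactive = the rest.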 Inconclusive results, whose numbers are uncertain, are shown.
# Chains of the proteins cited; added tags and fusions are not shown. Lines headed by an entry give the natural chain unless they say otherwise; changes in a name come on top.
# UniProt O75164: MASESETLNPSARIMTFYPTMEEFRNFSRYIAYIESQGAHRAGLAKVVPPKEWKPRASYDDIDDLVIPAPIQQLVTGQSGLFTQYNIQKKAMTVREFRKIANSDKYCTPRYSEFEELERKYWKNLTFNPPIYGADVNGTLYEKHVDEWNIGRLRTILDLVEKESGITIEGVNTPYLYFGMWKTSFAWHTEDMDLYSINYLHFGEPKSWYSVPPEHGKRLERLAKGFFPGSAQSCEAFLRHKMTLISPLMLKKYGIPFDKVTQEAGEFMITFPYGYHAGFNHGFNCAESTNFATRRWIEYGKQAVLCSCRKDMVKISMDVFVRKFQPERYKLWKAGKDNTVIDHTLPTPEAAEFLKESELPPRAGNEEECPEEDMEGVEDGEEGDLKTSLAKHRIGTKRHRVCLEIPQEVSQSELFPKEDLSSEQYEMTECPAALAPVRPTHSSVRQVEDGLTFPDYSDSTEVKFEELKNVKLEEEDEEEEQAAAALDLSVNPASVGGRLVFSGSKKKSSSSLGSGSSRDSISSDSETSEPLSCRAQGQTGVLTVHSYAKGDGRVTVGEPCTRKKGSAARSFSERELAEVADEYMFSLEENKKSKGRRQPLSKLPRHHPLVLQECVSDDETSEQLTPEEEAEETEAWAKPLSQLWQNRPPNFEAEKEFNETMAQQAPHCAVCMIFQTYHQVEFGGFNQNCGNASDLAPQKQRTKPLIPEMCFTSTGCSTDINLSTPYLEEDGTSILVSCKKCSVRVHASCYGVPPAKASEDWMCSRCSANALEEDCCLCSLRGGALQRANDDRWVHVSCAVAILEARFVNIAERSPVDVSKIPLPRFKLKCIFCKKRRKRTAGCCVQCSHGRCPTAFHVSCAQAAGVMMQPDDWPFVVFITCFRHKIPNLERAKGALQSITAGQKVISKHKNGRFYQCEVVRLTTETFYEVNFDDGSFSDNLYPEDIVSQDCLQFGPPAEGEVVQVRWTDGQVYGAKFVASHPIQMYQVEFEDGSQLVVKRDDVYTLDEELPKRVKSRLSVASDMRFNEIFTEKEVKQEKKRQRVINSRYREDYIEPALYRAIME
# Biological target: Lysine-specific demethylase 4A (Homo sapiens) (UniProt O75164)
# Assay: inhibition of JMJD2A H3K9me3 demethylation – biochemical, DELFIA europium, cherry-picked samples, selectivity assay for GASC-1 inhibitor project, dose response (AID 488840);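 note: europium signal reports the dimethyl H3K9 product detected by antibody so inhibitors lower it; 0% = median of neutral control wells and -100% = median of positive control wells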
# Details: GST-JMJD2A(1-420) H3K9me3 demethylation; at 6 µM (top of the series)
row,Structure (SMILES),"activity change, negative = inhibition"
1,CN1C(=O)N(C)C(=O)C2(Sc3ccccc3C2=O)C1=O,inconclusive: -11.7%
